Values of other authors, collected in US11633512B2, “Method for disinfecting soils or other agricultural growing media” (Agrozono, S.L., priority 2017, dated 2023).
At least one structure is not confirmed: it was looked up by name or label, or the drawing left a doubt.

Settings: cited from earlier work

O=[O+][O-] [ozone]
REDOX potential: 2.07 eV
